From the supplement of paper PMC12889115
This is one part of the list. These are raw signals, not scaled to a control.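 In the initial screen, polymyxin B was used at a concentration that permeabilizes Salmonella's outer membrane but not its inner membrane. Maximum growth was set by DMSO wells with or without polymyxin B. Since plates varied, data were ranked per plate, and compounds giving the lowest OD600 advanced as hits.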

System: Salmonella enterica serovar Typhimurium SL1344
Assay: bacterial growth OD600 after 18 h with compound and polymyxin B; higher = more bacterial growth (less inhibition)
Conditions: 50 µM, Mueller-Hinton broth

Row | SMILES | bacterial growth OD600 (polymyxin B 1 µg/mL) | bacterial growth OD600 (polymyxin B 0.75 µg/mL)
1 | COc1ccccc1CN1CCCC(N2CCN(c3ccccc3C)CC2)C1 (stereo not given) | 0.993 | –
2 | CCCNC(=O)NCc1cccnc1N1CCN(c2ccccc2C)CC1 | 0.011 | –
3 | COc1ccc(CCN2CC(C(=O)N3CCCCCCC3)CCC2=O)cc1 (stereo not given) | 0.887 | –
4 | COc1cc(CC(=O)N2CCC(n3c(C4CCCO4)nc4cc(C(F)(F)F)ccc43)CC2)cc(OC)c1OC (stereo not given) | – | 0.782
5 | CCOC(=O)CNC(=O)N1C[C@H]2OC(=O)N(CCc3ccc(OC)cc3)[C@H]2C1 | 0.9 | –
6 | COc1ccc(C(=O)Nc2ccnn2C2CCN(C(=O)CSC)CC2)cc1 | 1.24 | –
7 | COc1ccc(CC(=O)NC2CCCN(CCCc3ccccc3)C2)cc1OC (stereo not given) | 1.18 | –
8 | Cc1c(CC(=O)N(C)Cc2ccncn2)c2c(n1Cc1ccccc1)CCCC2=O | – | 0.833
9 | CN(CC1COCCO1)C(=O)CC1c2ccccc2CCc2ccccc21 (stereo not given) | – | 0.683
10 | O=C(Nc1ccnn1C1CCN(C(=O)c2ccccn2)CC1)c1ccc2c(c1)OCO2 | 0.946 | –
11 | COc1cccc(CNC(=O)CCC2(Cc3ccc(-c4ccccc4)cc3)CCC(=O)N2)c1OC (stereo not given) | – | 0.38
12 | Cc1ccccc1-c1cnnc(NCCc2nc(C)c3c(n2)CCCC3)n1 | 0.997 | –
13 | CC(C)c1nc(C(=O)N2CCc3onc(-c4ccccc4F)c3C2)cs1 | – | 0.002
14 | CSc1ncc(CN2CCc3c([nH]c4ccccc34)C2c2cccc(O)c2)cn1 (stereo not given) | 0.003 | –
15 | COc1ccccc1Oc1ncccc1CNC(=O)c1cscn1 | – | 0.783
16 | COc1ccc(-c2nn(-c3ccccc3C)cc2CN(C)CCN2CCOCC2)cc1F | 0.823 | –
17 | CSCCCNC(=O)c1cn(CC(C)C)cc(C(=O)N2CCCCCC2)c1=O | – | 1
18 | COc1cc2nc(-c3cc4c(c(OC)c3)OCCN(C(=O)c3ccccc3F)C4)cc(C)c2cc1OC | – | 0.845
19 | CC(C)c1c(C(=O)NCC2(N3CCOCC3)CCCC2)cnn1-c1nccc(-c2ccccc2F)n1 | – | 0.84
20 | CC(CCc1ccc(O)cc1)N1CCC(N2CCC(C(=O)NC3CC3)CC2)CC1 (stereo not given) | 1.04 | –
21 | COc1cccc(CC(C2CCN(Cc3cccc(OC)c3O)CC2)N(C)C(=O)c2ccco2)c1 (stereo not given) | – | 0.97
22 | O=C(NCc1ccco1)N1CCc2onc(-c3ccc4c(c3)OCO4)c2C1 | – | 0.882
23 | COc1ccc(Cl)cc1NC(=O)CCC1CCCN(C(=O)CCc2scnc2C)C1 (stereo not given) | 1.07 | –
24 | CCOC(=O)CC1COCCN1C(=O)c1cc(COc2ccccc2SC)on1 (stereo not given) | 0.907 | –
25 | O=C(Nc1ccc(Oc2cccnc2)cc1)C1CCN(Cc2cccc(Cl)c2)CC1 | 0.006 | –
26 | CCN(CC1CCN(C2CCN(C)CC2)CC1)C(=O)/C=C/c1ccc(OC)c(OC)c1 | 0.989 | –
27 | C#Cc1ccc(CN2CCN(Cc3ccc(OC)c(C)c3)C(CCO)C2)cc1 (stereo not given) | 0.937 | –
28 | CCn1c(-c2cccnc2)nc2cc(NC(=O)COC)cc(C(=O)NCc3cc(F)ccc3C)c21 | – | 0.841
29 | COc1cccc(OCc2nc(C(=O)NCc3ccc(F)cc3)co2)c1 | 0.799 | –
30 | C=CCOc1ccccc1CN1CCC(C2(CCc3ccccc3)NC(=O)N(CC#CC)C2=O)CC1 (stereo not given) | – | 0.782

A few values from the results shown.
In bacterial growth OD600 (polymyxin B 0.75 µg/mL), CSCCCNC(=O)c1cn(CC(C)C)cc(C(=O)N2CCCCCC2)c1=O is entered as 1
In bacterial growth OD600 (polymyxin B 0.75 µg/mL), COc1cc2nc(-c3cc4c(c(OC)c3)OCCN(C(=O)c3ccccc3F)C4)cc(C)c2cc1OC is entered as 0.845
